Laboratory results from PMC6619347.

Amino acid sequences for entries named in this document (tags omitted).
UniProt P63208: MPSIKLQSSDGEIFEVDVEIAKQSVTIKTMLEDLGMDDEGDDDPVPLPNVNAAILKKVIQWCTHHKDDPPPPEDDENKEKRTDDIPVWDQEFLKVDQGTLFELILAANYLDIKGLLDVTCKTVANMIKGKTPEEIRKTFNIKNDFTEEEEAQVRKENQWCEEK
UniProt P35222: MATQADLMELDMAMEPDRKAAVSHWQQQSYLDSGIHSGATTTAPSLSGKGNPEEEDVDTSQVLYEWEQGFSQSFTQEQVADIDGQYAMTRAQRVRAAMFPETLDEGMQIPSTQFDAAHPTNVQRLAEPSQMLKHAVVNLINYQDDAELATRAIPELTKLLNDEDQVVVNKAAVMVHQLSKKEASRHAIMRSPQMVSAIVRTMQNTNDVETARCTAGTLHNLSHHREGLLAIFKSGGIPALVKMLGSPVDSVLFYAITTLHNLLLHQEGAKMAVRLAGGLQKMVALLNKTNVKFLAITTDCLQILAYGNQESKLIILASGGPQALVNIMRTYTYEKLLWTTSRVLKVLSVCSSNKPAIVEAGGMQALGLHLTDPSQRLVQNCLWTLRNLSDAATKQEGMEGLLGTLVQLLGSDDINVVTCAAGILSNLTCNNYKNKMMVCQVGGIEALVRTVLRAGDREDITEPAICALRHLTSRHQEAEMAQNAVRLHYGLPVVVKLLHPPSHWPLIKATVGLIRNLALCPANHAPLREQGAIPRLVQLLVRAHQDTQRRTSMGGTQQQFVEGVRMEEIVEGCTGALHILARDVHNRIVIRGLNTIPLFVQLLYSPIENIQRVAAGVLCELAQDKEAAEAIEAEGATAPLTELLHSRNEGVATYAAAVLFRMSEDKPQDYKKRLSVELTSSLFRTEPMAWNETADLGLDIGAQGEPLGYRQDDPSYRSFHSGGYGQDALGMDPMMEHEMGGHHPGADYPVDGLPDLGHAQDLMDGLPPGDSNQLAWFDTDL

Assays:
[1] = target: DDK‐ΔF‐FBXO16 (human) (UniProt Q8IX29); experiment: co-IP; MDA‐MB‐231 cells coexpressing GFP‐β‐catenin with DDK‐FBXO16 or DDK‐ΔF‐FBXO16 for 36 h, then 5 μM MG132 for 6 h; whole‐cell lysates immunoprecipitated with anti‐DDK antibody, immunoblot
[2] = target: T1, DDK‐FBXO16 (human) (UniProt Q8IX29); experiment: co-IP; cells coexpressing DDK‐FBXO16 and β‐catenin deletion mutants; 40 h after transfection 5 μM MG132 for 6 h; whole‐cell extracts immunoprecipitated with anti‐DDK antibody, immunoblot
T1 sequence: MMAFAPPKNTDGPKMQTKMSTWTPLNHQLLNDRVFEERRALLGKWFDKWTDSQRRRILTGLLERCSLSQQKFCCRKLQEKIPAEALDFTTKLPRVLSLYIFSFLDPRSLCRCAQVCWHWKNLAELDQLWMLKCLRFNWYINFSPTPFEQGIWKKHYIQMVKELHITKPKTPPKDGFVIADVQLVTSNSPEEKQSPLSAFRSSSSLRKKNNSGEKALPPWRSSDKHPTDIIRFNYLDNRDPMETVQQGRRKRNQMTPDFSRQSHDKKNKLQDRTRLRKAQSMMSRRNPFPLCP

Row | binding [1] | binding [2] | Substance
1 | no binding | – | SKP1 (from UniProt P63208 1-163)
2 | – | no binding | GFP‐ΔC‐β‐catenin (domain or fragment)
3 | binds | – | GFP‐WT‐β‐catenin (from UniProt P35222 1-781)

These are yes or no findings as the source states them, for the method shown. In cells and extracts the contact can be indirect. For part of these data: Binding calls can cover weak binding; strength is not graded here.
